Results reported in patent US20240301030A1.
These are yes or no findings as the source states them, for the method shown. For some of these results: Binding seen in cells or lysates may run through a third protein. Some results given as binding are weak or reduced against the parent protein; the word gives no strength.

Protein sequences, listed by entry. Tags and fused reporters are not part of them. Residues count along the entry.
UniProt Q92673, residues 82-2214: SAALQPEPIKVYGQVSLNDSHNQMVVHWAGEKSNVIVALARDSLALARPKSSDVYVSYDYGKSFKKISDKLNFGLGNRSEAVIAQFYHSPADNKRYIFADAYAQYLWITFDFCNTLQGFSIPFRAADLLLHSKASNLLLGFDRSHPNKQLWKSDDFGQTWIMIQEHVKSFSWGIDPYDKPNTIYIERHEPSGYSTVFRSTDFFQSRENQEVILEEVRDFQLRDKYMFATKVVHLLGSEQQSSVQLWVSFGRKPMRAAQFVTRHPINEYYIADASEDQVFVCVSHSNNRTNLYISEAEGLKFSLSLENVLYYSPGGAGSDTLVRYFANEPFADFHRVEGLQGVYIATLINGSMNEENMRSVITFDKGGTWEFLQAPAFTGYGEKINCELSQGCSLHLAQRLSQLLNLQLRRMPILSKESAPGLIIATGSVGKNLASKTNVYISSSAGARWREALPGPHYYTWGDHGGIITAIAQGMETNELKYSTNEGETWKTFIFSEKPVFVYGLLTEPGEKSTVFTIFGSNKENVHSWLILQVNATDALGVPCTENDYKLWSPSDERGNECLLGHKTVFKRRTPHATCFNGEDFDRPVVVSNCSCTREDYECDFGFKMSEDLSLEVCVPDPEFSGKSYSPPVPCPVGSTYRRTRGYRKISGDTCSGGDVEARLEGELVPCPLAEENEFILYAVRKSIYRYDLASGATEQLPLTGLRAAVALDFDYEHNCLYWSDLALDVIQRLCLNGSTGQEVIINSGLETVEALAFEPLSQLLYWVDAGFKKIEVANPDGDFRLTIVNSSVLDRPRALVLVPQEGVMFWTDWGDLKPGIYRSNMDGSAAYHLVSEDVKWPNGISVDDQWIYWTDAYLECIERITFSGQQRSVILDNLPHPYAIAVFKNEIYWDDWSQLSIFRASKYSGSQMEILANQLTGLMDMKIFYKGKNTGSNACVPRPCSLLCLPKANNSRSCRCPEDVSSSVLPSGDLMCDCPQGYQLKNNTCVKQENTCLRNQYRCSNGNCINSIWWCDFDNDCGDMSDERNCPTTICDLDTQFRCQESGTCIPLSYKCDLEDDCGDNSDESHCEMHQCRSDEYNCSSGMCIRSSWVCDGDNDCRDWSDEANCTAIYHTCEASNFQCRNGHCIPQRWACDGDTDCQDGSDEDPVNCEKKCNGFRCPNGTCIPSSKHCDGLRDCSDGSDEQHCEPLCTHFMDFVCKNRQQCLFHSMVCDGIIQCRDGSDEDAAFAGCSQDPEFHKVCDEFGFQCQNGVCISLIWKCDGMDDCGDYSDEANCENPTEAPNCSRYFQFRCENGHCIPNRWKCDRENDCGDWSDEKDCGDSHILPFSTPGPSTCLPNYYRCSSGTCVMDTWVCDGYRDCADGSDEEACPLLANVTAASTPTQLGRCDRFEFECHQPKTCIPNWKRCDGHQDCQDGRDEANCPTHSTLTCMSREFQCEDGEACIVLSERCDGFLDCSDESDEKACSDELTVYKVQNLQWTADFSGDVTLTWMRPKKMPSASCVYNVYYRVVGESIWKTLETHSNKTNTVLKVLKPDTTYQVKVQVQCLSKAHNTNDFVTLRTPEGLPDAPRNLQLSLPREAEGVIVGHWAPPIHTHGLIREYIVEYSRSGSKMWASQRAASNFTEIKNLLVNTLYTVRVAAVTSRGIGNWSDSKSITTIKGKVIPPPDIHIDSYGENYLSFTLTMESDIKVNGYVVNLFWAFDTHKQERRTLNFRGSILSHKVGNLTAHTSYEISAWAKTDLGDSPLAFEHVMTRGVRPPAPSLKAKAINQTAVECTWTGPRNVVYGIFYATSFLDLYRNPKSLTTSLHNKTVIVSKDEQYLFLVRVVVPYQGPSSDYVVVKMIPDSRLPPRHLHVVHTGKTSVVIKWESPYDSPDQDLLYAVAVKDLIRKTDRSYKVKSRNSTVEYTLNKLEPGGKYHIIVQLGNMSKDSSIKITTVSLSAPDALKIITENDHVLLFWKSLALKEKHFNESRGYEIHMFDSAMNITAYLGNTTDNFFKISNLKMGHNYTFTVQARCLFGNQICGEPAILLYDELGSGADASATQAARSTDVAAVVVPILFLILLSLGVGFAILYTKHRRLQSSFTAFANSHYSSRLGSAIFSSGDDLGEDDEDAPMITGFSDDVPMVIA

Columns and labels:
[1] = biological target: SORLA with C-terminal fusion of the C-terminal fragment of venus fluorescent protein (human) (UniProt Q92673); experiment: GFP-trap immunoprecipitation of reconstituted venus, WB for SORLA
[2] = biological target: SORLA with C-terminal fusion of the C-terminal fragment of venus fluorescent protein (human) (UniProt Q92673); experiment: bimolecular fluorescence complementation (split venus), HEK293T cells
[3] = biological target: full-length SORLA with C-terminal GFP-tag (human) (UniProt Q92673); experiment: in situ proximity ligation assay, co-transfected HEK293 cells (figure legend)
[4] = biological target: full-length SORLA with C-terminal GFP-tag (human) (UniProt Q92673); experiment: in situ proximity ligation assay, co-transfected HEK293 cells

| binding [1] | binding [2] | binding [3] | binding [4] | Substance |
| --- | --- | --- | --- | --- |
| binds | binds |  |  | SORLA with C-terminal fusion of the N-terminal fragment of venus fluorescent protein (from UniProt Q92673 82-2214) (receptor) |
|  |  | binds | binds | full-length SORLA with C-terminal FLAG-tag (from UniProt Q92673 82-2214) (receptor) |
